Measured data: PubChem BioAssay AID1259291 (Sanger Institute, 2017)
In all, the deposit lists 794 reagents; below is a part drawn at random. Of all reagents, 15 (1.9%) are marked active. 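Calls rest on knock-down alone; drug synergy scores do not affect them; drugs added a day post-transfection, DMSO vehicle as comparison.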 Viability is capped at 1. Not all columns of the deposit are shown. Not given: the amount of reagent, the time to read-out.

Assay: 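Genes needed for HT29 colorectal cancer cell survival or for sensitivity to drugs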 (primary screen)
Cells: HT29 human colorectal cancer cells
Reagent: siRNA pool against human genes
Challenge: anchor drugs added a day after transfection: BYL719 at 1 µM, cetuximab at 5 µg/ml or trametinib at 10 nM, or DMSO vehicle alone
Measurement: 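Cell viability as a fraction of the non-targeting pool, mean of replicates, robust z-scores from control wells; synergy scores for BYL719 (1 µM), cetuximab (5 µg/ml), trametinib (10 nM)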
Reading the numbers: robust z-score, knock-down alone and viability, knock-down alone: higher = more viable cells
Units: viability, knock-down alone in fraction of control
Hit rule: 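Essential when the robust z-score for knock-down without any drug is below -3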
Meaning of the calls: active = essential (knock-down alone); inactive = no change alone

PRKAG1 (protein kinase AMP-activated non-catalytic subunit gamma 1): robust z-score, knock-down alone = 0.552; viability, knock-down alone = 1; call = inactive
CSK (C-terminal Src kinase): robust z-score, knock-down alone = 0.248; viability, knock-down alone = 0.981; call = inactive
XYLB (xylulokinase): robust z-score, knock-down alone = 0.552; viability, knock-down alone = 1; call = inactive
PEAK1 (pseudopodium enriched atypical kinase 1): robust z-score, knock-down alone = 0.552; viability, knock-down alone = 1; call = inactive
PIP4K2A (phosphatidylinositol-5-phosphate 4-kinase type 2 alpha): robust z-score, knock-down alone = 0.552; viability, knock-down alone = 1; call = inactive
PHKA2 (phosphorylase kinase regulatory subunit alpha 2): robust z-score, knock-down alone = 0.442; viability, knock-down alone = 0.993; call = inactive
CHUK: robust z-score, knock-down alone = 0.552; viability, knock-down alone = 1; call = inactive
DYRK1B: robust z-score, knock-down alone = 0.552; viability, knock-down alone = 1; call = inactive
IRAK4 (interleukin 1 receptor associated kinase 4): robust z-score, knock-down alone = 0.552; viability, knock-down alone = 1; call = inactive
ALDH18A1 (aldehyde dehydrogenase 18 family member A1): robust z-score, knock-down alone = 0.536; viability, knock-down alone = 0.999; call = inactive
MAPKAPK3 (MAPK activated protein kinase 3): robust z-score, knock-down alone = -2.47; viability, knock-down alone = 0.813; call = inactive
DCLK3 (doublecortin like kinase 3): robust z-score, knock-down alone = 0.552; viability, knock-down alone = 1; call = inactive

Records listed so far whose target name starts with D or d:
DYRK1B: robust z-score, knock-down alone = 0.552; viability, knock-down alone = 1; call = inactive
DCLK3 (doublecortin like kinase 3): robust z-score, knock-down alone = 0.552; viability, knock-down alone = 1; call = inactive
